These are yes or no findings as the source states them, for the method shown. Binding seen in cells or lysates may run through a third protein. Some results given as binding are weak or reduced against the parent protein; the word gives no strength. Sequences can lack the tags named with a protein.
Biological target: T1, HA-tagged form of JMJD2C (UniProt Q9H3R0)
T1 sequence: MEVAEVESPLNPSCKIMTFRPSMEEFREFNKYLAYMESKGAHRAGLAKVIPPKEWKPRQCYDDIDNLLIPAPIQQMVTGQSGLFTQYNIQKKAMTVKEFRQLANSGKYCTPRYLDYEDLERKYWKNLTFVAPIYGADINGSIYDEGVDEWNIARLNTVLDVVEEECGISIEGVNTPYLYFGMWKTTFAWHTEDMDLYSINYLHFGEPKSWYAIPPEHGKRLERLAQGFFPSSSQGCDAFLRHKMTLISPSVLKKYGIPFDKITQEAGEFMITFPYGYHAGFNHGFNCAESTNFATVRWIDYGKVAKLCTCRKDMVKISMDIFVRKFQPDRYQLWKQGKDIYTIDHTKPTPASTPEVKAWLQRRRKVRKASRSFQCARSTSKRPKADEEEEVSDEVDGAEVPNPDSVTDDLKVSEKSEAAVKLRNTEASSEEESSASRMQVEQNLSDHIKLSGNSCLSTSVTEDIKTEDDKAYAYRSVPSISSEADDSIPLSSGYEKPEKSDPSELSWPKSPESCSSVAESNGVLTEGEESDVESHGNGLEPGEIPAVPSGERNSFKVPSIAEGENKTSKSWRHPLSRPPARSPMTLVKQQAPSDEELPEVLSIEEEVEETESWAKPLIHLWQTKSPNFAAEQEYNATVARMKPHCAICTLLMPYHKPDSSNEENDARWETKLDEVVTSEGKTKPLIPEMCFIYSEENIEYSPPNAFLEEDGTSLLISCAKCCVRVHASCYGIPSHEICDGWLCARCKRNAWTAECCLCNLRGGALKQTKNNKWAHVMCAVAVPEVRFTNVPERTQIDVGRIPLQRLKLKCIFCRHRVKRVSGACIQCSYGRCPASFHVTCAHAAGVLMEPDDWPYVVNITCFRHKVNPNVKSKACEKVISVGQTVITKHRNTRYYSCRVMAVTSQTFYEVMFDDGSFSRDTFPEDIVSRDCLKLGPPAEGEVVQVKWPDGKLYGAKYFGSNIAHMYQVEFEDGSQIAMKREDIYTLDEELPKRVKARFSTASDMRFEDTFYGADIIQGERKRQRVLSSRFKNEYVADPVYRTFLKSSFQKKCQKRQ
Experiment: co-IP; U2OS cells electroporated with untagged FL-JMJD2A or JMJD2A-M584 with HA-JMJD2C; lysed 48 h later in IP buffer (10 mM Tris pH 8, 0.4% NP40, 300 mM NaCl, 10% glycerol, 1 mM DTT), diluted with one volume of buffer with CaCl2 and DNase; anti-HA agarose beads overnight at 4°C; blots with antibodies against HA or JMJD2A

B1: FL-JMJD2A (full-length JMJD2A/KDM4A), untagged (protein, UniProt Q8BW72-1 1-1064)
chain: MASESETLNPSARIMTFYPTMEEFRNFSRYIAYIESQGAHRAGLAKVVPPKEWKPRTSYDDIDDLVIPAPIQQLVTGQSGLFTQYNIQKKAMTVREFRKIANSDKYCTPRYSEFEELERKYWKNLTFNPPIYGADVNGTLYEQHVDEWNIGRLKTILDLVEKESGITIEGVNTPYLYFGMWKTSFAWHTEDMDLYSINYLHFGEPKSWYSVPPEHGKRLERLAKGFFPGSAQSCEAFLRHKMTLISPLMLKKYGIPFDKVTQEAGEFMITFPYGYHAGFNHGFNCAESTNFATRRWIEYGKQAVLCSCRKDMVKISMDVFVRRFQPERYKLWKAGKDSMVIDHTLPTPEAAEFLKDSGGLTPRAGSEECPEEDVEAADQGEEGDVKRSLAKHRIGTKRHRVCLEIPQEVSQSELFPKEELSSGQYEMTECPATLAPVRPTHSSVRQVEDSLPFPDYSDPTEVKFEELKNVKLEEEDEEDEPEAAALDLSVNPASVGGRLVFSGSKKKSSSSLGSTSSQDSVSSDSETAESVSCQGQEKTGVLTVHSYARGDGKAATGEPSVKKKRSAPRSISEQELAEVADEYMLSLEENKKTKGRRQPLSKLPRHHPLVLQECGSDDETSEQLTPEEEAEETEAWAKPLSQLWQNRPPNFEAEKEFNEIMAQQAPHCAVCMIFQTYHQVEFGAFSQSCGDASEPAAQTQRTKPLIPEMCFTTTGCSTDINLSTPYLEEDGTSMLVSCKKCSVRVHASCYGVPPAKASEEWMCSRCSANALEEDCCLCSLRGGALQRANDDRWVHVSCAVAILEARFVNIAERSPVDVSKIPLPRFKLKCVFCKKRRKRNAGCCVQCSHGRCPTAFHVSCAQAAGVMMQPDDWPFVVFITCFRHKIPNLERAKGALLSITAGQKVISKHKNGRFYQCEVVRLTTETFYEVNFDDGSFSDNLYPEDIVSQDCLQLGPPAEGEVVQVRWTDGQVYGAKFVASHPIQMYQVEFEDGSQLVVKRDDVYTLDEELPKRVKSRLSVASDMRFNEIFTEKEVKQEKKRQRVINSRYREDYIEPALYRAIME
binding: binds

B2: JMJD2A-M584 (N-terminal deletion mutant of JMJD2A initiating at Met584), untagged (domain or fragment, UniProt Q8BW72-1 584-1064)
chain: MLSLEENKKTKGRRQPLSKLPRHHPLVLQECGSDDETSEQLTPEEEAEETEAWAKPLSQLWQNRPPNFEAEKEFNEIMAQQAPHCAVCMIFQTYHQVEFGAFSQSCGDASEPAAQTQRTKPLIPEMCFTTTGCSTDINLSTPYLEEDGTSMLVSCKKCSVRVHASCYGVPPAKASEEWMCSRCSANALEEDCCLCSLRGGALQRANDDRWVHVSCAVAILEARFVNIAERSPVDVSKIPLPRFKLKCVFCKKRRKRNAGCCVQCSHGRCPTAFHVSCAQAAGVMMQPDDWPFVVFITCFRHKIPNLERAKGALLSITAGQKVISKHKNGRFYQCEVVRLTTETFYEVNFDDGSFSDNLYPEDIVSQDCLQLGPPAEGEVVQVRWTDGQVYGAKFVASHPIQMYQVEFEDGSQLVVKRDDVYTLDEELPKRVKSRLSVASDMRFNEIFTEKEVKQEKKRQRVINSRYREDYIEPALYRAIME
binding: binds
